Test results: US20250084056A1, “SUBSTITUTED OXOISOINDOLINYL PIPERIDINE-2,6-DIONE COMPOUNDS” (BRISTOL-MYERS SQUIBB COMPANY, priority 2023, published 2025)
Some entries share one result that the patent states for a list of compounds.

Sequences of proteins named here, by UniProt entry; tags and fusion partners are left off. A change or cut given only in a name is not applied to a line headed by its entry.
UniProt P24864, whole entry: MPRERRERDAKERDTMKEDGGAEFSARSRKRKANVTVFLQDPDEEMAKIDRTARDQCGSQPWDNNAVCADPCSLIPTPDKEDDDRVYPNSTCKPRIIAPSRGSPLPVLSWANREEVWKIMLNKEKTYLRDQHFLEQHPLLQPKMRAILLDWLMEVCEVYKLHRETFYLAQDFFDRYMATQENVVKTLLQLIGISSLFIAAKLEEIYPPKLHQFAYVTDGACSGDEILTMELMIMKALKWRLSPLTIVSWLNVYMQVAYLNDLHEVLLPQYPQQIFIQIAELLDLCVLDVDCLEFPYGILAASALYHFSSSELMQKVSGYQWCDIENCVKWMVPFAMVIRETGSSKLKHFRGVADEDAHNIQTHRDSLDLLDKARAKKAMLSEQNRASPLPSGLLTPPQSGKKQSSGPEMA
UniProt Q96SW2: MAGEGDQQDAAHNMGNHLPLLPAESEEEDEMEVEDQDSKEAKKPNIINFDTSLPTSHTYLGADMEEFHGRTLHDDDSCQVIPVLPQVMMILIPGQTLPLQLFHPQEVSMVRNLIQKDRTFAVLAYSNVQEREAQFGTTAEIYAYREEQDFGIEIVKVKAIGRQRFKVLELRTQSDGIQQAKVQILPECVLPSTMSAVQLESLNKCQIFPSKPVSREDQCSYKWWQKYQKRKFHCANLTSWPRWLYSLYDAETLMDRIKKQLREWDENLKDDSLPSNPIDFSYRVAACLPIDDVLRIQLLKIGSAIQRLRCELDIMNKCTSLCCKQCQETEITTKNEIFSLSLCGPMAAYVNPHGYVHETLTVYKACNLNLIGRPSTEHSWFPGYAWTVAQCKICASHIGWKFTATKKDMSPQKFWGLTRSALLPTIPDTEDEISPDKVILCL

biological target: Cyclin E1 (Homo sapiens, UniProt P24864+Q96SW2); experiment: Cyclin E1 Cellular Degradation Assay (MSD); format: cell-based; set-up: endogenous in cells; host or cells: OVCAR3; conditions: degradation of Cyclin E1 over degradation of GSPT1, Table 18
Procedure: Culturing cells: On Day 0, OVCAR3 cells were plated at 15,000 cells/well in 40 μL of culture medium (RPMI1640, 20% FBS, 0.01 insulin, 1% Anti/Anti) in a 384 well cell culture plate. Cell cultures were incubated for 24 hours at 37° C. and 5% CO2.
Coating MSD plates: On Day 1, rabbit anti-CCNE1 antibody (Abcam ab33911, 1 μg/mL in DPBS, […]) was dispensed to a Meso Scale Discovery plate (MSD L21XA). The MSD plate was spun briefly to ensure the solution coated the bottom of the well and incubated overnight at 4° C. On Day 2, the plate was washed 3 times with TBS +0.2% TWEEN, blocked for 1 hour with 3% MSD Blocker A (MSD R93AA-1, 30 μL/well), then washed again 3 times with TBS+0.2% TWEEN.
Treating and lysing cells: On Day 1, compounds of interest were dispensed into the cell cultures by acoustic dispensing technology. The cell cultures were then spun at 400 g for 4 minutes to disperse the compounds and incubated at 37° C. and 5% CO2 for 24 hours. After incubation, 40 μL of DPBS was added to the cell cultures to dilute the media. All liquid was gently discarded and immediately replaced with 30 μL of lysis buffer (MSD Tris Lysis buffer (MSD R60TX-2), Halt Protease inhibitor (ThermoFisher 78438), Phosphatase Inhibitor II (Sigma-Aldrich P5726), Phosphatase Inhibitor III (Sigma-Aldrich P0044), 0.02M PMSF (Sigma-Aldrich 7626), 0.1% SDS (VWR E719-100ML)). The plate was then sealed, shaken at 300 rpm at room temperature for 5 minutes, and freeze-thawed for optimum cell lysis.
Collecting data: After thawing, 25 μL of lysate was transferred to a coated MSD plate. The plate was then sealed and shaken at 300 rpm overnight in 4° C. On Day 3, the MSD plate was washed 3 times with TBS+0.2% TWEEN. Mouse anti-CCNE1 antibody (Abcam ab238081, 0.5 μg/mL in 1% MSD Blocker A, 10 μL/well) dispensed to the MSD plate, which was then sealed and shaken at room temperature for 3 hours. After the first antibody incubation, the plate was washed 3 times with TBS+0.2% TWEEN, then goat anti-mouse Sulfo-Tag antibody (MSD R32AC, 1 μg/mL in 1% MSD Blocker A, 10 μL/well) was dispensed to the MSD plate. The plate was sealed again and shaken at room temperature for 1 hour, then washed 3 times with TBS+0.2% TWEEN. After the final wash, 35 μL of 1× Read Buffer (MSD R92TC-1) was added to each well and the data was captured using the MSD plate reader. The reference compound, [2-(2,6-dioxopiperidin-3-yl)-4-methoxy-3-oxo-2,3-dihydro-1H-isoindol-5-yl]methyl N-[4-(3,4-difluorophenoxy)phenyl]carbamate, at […] was used to define […]. Assay results for each compound were reported as DC50, the concentration giving 50% response, and Dmax, the maximum response observed with the compound.

selectivity, ratio of GSPT1 DC50/Cyclin E1 DC50, at least 9:
COc1c(COC(=O)Nc2ccc(Oc3ccc(F)c(F)c3)cc2)ccc2c1C(=O)N([C@H]1CCC(=O)NC1=O)C2 (single isomer, unassigned) [Example 35, {2-[(3 S)-2,6-dioxopiperidin-3-yl]-4-methoxy-3-oxo-2,3-dihydro-1H-isoindol-5-yl}methyl N-[4-(3,4-difluorophenoxy)phenyl]carbamate]
COc1c(COC(=O)Nc2ccc(Oc3ccc(F)c(F)c3)cc2)ccc2c1C(=O)N([C@@H]1CCC(=O)NC1=O)C2 (single isomer, unassigned) [Example 36]
CC(C)Oc1c(COC(=O)Nc2ccc(Oc3ccc(F)c(F)c3)cc2)ccc2c1C(=O)N([C@H]1CCC(=O)NC1=O)C2 (single isomer, unassigned) [Example 125]
COc1c(COC(=O)Nc2ccc(Oc3ccc(F)c(F)c3)cc2)ccc2c1C(=O)N(C1CCC(=O)NC1=O)C2 (stereo not shown) [Example 1, [2-(2,6-dioxopiperidin-3-yl)-4-methoxy-3-oxo-2,3-dihydro-1H-isoindol-5-yl]methyl N-[4-(3,4-difluorophenoxy)phenyl]carbamate]
COc1c(COC(=O)Nc2ccc(Oc3ccccc3)cc2)ccc2c1C(=O)N(C1CCC(=O)NC1=O)C2 (stereo not shown) [Example 2, [2-(2,6-dioxopiperidin-3-yl)-4-methoxy-3-oxo-2,3-dihydro-1H-isoindol-5-yl]methyl N-(4-phenoxyphenyl)carbamate]
COc1c(COC(=O)Nc2ccc(Oc3cccc(Cl)c3)cc2)ccc2c1C(=O)N(C1CCC(=O)NC1=O)C2 (stereo not shown) [Example 3, [2-(2,6-dioxopiperidin-3-yl)-4-methoxy-3-oxo-2,3-dihydro-1H-isoindol-5-yl]methyl N-[4-(3-chlorophenoxy)phenyl]carbamate]
COc1c(COC(=O)Nc2ccc(Oc3cccc(F)c3)cc2)ccc2c1C(=O)N(C1CCC(=O)NC1=O)C2 (stereo not shown) [Example 4, [2-(2,6-dioxopiperidin-3-yl)-4-methoxy-3-oxo-2,3-dihydro-1H-isoindol-5-yl]methyl N-[4-(3-fluorophenoxy)phenyl]carbamate]
COc1c(COC(=O)Nc2ccc(Oc3ccc(F)cc3F)cc2)ccc2c1C(=O)N(C1CCC(=O)NC1=O)C2 (stereo not shown) [Example 5, [2-(2,6-dioxopiperidin-3-yl)-4-methoxy-3-oxo-2,3-dihydro-1H-isoindol-5-yl]methyl N-[4-(2,4-difluorophenoxy)phenyl]carbamate]
COc1c(COC(=O)Nc2ccc(Cc3cccc(F)c3)cc2)ccc2c1C(=O)N(C1CCC(=O)NC1=O)C2 (stereo not shown) [Example 6, [2-(2,6-dioxopiperidin-3-yl)-4-methoxy-3-oxo-2,3-dihydro-1H-isoindol-5-yl]methyl N-{4-[(3-fluorophenyl)methyl]phenyl}carbamate]
COc1c(COC(=O)Nc2ccc(C3(c4ccccc4)CC3)cc2)ccc2c1C(=O)N(C1CCC(=O)NC1=O)C2 (stereo not shown) [Example 7, [2-(2,6-dioxopiperidin-3-yl)-4-methoxy-3-oxo-2,3-dihydro-1H-isoindol-5-yl]methyl N-[4-(1-phenylcyclopropyl)phenyl]carbamate]
COc1c(COC(=O)Nc2ccc(N(C)c3cccc(F)c3)cc2)ccc2c1C(=O)N(C1CCC(=O)NC1=O)C2 (stereo not shown) [Example 8, [2-(2,6-dioxopiperidin-3-yl)-4-methoxy-3-oxo-2,3-dihydro-1H-isoindol-5-yl]methyl N-{4-[(3-fluorophenyl)(methyl)amino]phenyl}carbamate]
COc1c(COC(=O)Nc2ccc(Nc3cccc(F)c3)cc2)ccc2c1C(=O)N(C1CCC(=O)NC1=O)C2 (stereo not shown) [Example 9, [2-(2,6-dioxopiperidin-3-yl)-4-methoxy-3-oxo-2,3-dihydro-1H-isoindol-5-yl]methyl N-{4-[(3-fluorophenyl)amino]phenyl}carbamate]
COc1c(COC(=O)Nc2ccc(Oc3cccc(Br)c3)cc2)ccc2c1C(=O)N(C1CCC(=O)NC1=O)C2 (stereo not shown) [Example 10, [2-(2,6-dioxopiperidin-3-yl)-4-methoxy-3-oxo-2,3-dihydro-1H-isoindol-5-yl]methyl N-[4-(3-bromophenoxy)phenyl]carbamate]
COc1c(COC(=O)Nc2ccc(Oc3cccc(C)c3)cc2)ccc2c1C(=O)N(C1CCC(=O)NC1=O)C2 (stereo not shown) [Example 11, [2-(2,6-dioxopiperidin-3-yl)-4-methoxy-3-oxo-2,3-dihydro-1H-isoindol-5-yl]methyl N-[4-(3-methylphenoxy)phenyl]carbamate]
COc1c(COC(=O)Nc2ccc(Oc3cc(C)cc(C)c3)cc2)ccc2c1C(=O)N(C1CCC(=O)NC1=O)C2 (stereo not shown) [Example 12, [2-(2,6-dioxopiperidin-3-yl)-4-methoxy-3-oxo-2,3-dihydro-1H-isoindol-5-yl]methyl N-[4-(3,5-dimethylphenoxy)phenyl]carbamate]
COc1c(COC(=O)Nc2ccc(Oc3cc(F)cc(F)c3)cc2)ccc2c1C(=O)N(C1CCC(=O)NC1=O)C2 (stereo not shown) [Example 13, [2-(2,6-dioxopiperidin-3-yl)-4-methoxy-3-oxo-2,3-dihydro-1H-isoindol-5-yl]methyl N-[4-(3,5-difluorophenoxy)phenyl]carbamate]
COc1c(COC(=O)Nc2ccc(Oc3ccc(F)c(Cl)c3)cc2)ccc2c1C(=O)N(C1CCC(=O)NC1=O)C2 (stereo not shown) [Example 14, [2-(2,6-dioxopiperidin-3-yl)-4-methoxy-3-oxo-2,3-dihydro-1H-isoindol-5-yl]methyl N-[4-(3-chloro-4-fluorophenoxy)phenyl]carbamate]
COc1c(COC(=O)Nc2ccc(Oc3cc(F)c(F)c(F)c3)cc2F)ccc2c1C(=O)N(C1CCC(=O)NC1=O)C2 (stereo not shown) [Example 15, [2-(2,6-dioxopiperidin-3-yl)-4-methoxy-3-oxo-2,3-dihydro-1H-isoindol-5-yl]methyl N-[2-fluoro-4-(3,4,5-trifluorophenoxy)phenyl]carbamate]
COc1c(COC(=O)Nc2ccc(Oc3cccc(F)c3)cc2F)ccc2c1C(=O)N(C1CCC(=O)NC1=O)C2 (stereo not shown) [Example 16, [2-(2,6-dioxopiperidin-3-yl)-4-methoxy-3-oxo-2,3-dihydro-1H-isoindol-5-yl]methyl N-[2-fluoro-4-(3-fluorophenoxy)phenyl]carbamate]
COc1c(COC(=O)Nc2ccc(Cc3ccc(F)c(F)c3)cc2)ccc2c1C(=O)N(C1CCC(=O)NC1=O)C2 (stereo not shown) [Example 17, [2-(2,6-dioxopiperidin-3-yl)-4-methoxy-3-oxo-2,3-dihydro-1H-isoindol-5-yl]methyl N-{4-[(3,4-difluorophenyl)methyl]phenyl}carbamate]
COc1c(COC(=O)Nc2ccc(Cc3ccc(F)c(F)c3)cc2C)ccc2c1C(=O)N(C1CCC(=O)NC1=O)C2 (stereo not shown) [Example 18, [2-(2,6-dioxopiperidin-3-yl)-4-methoxy-3-oxo-2,3-dihydro-1H-isoindol-5-yl]methyl N-{4-[(3,4-difluorophenyl)methyl]-2-methylphenyl}carbamate]
COc1c(COC(=O)Nc2ccc(Cc3cc(F)c(F)c(F)c3)cc2)ccc2c1C(=O)N(C1CCC(=O)NC1=O)C2 (stereo not shown) [Example 19, [2-(2,6-dioxopiperidin-3-yl)-4-methoxy-3-oxo-2,3-dihydro-1H-isoindol-5-yl]methyl N-{4-[(3,4,5-trifluorophenyl)methyl]phenyl}carbamate]
